# Assay results reported in PubChem BioAssay AID2685 (National Center for Advancing Translational Sciences (NCATS), 2010).
# Some of the results follow. These are further read-outs of the screen, such as a control signal, another cell line or another target. No call is given for them. The list favours compounds with an active or inconclusive main result. The note in brackets gives the kind of curve behind each potency; many fits are weak.
# Assay: qHTS Assay for Lipid Storage Modulators in Drosophila S3 Cells;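 on cell number change: cells counted by Cell Tracker Red CMTPX staining in the red channel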
# Settings: BODIPY lipid droplet fluorescence, 18-24 h; for cell number change: measured here: cell count max response, cells fed with added oleic acid
# Procedure, shortened: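 Drosophila S3 cells loaded with oleic acid (400 uM, as added) and compounds at several concentrations; lipid droplets imaged by 488-nm laser-scanning cytometry, 500–530 nm intensity and object ratio to cell channel. Percent activity normalized to 20 uM Triacsin C.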
# [1] = measured here: cell number channel AC50, cells fed with added oleic acid
# [2] = measured here: lipid fluorescence (Fed channel) AC50, cells fed with added oleic acid
SMILES,cell number change [%],AC50 [1],AC50 [2]
Cc1ccc(-c2nn(CC(=O)NN3CCOCC3)c(=O)c3ccccc23)cc1,-30.1,"2.06 µM [falling, full curve, poor fit]","5.8 µM [falling, full curve]"
CCOC(=O)C1CCCN(C(=O)Cn2cnc3c2c(=O)n(C)c(=O)n3C)C1 (stereo not given),15,–,"0.116 µM [falling, single point]"
O=C1c2cccc3cccc(c23)C(=O)N1c1nccs1,0.982,–,"32.6 µM [rising, partial curve, poor fit]"
CCC(C)[C@H](NS(=O)(=O)c1ccc(C)cc1)C(=O)N1CCC(C(=O)N[C@@H](Cc2ccccc2)C(=O)O)CC1 (stereo not given in full),-9.16,–,"0.651 µM [rising, single point]"
CCCN(CCC)CCCNC(=O)c1cc2c(-c3ccc(OC)c(OC)c3)nn(C)c2s1,-2.83,–,"29.1 µM [falling, single point]"
Cc1ccc(-n2nc(C)c3c(C)c(CCC(=O)NCc4ccccc4)c(C)nc32)cc1,-19,–,"32.6 µM [falling, partial curve, poor fit]"
COc1ccc(CCNC(=O)CCc2ccsc2)cc1OC,–,–,"29.1 µM [rising, single point]"
COc1ccc(-c2cc(C(=O)OC(C)C(=O)Nc3c(C)n(C)n(-c4ccccc4)c3=O)c3ccccc3n2)cc1 (stereo not given),-4.2,–,"0.00517 µM [rising, full curve]"
CC(C)CN(C1CCS(=O)(=O)C1)S(=O)(=O)c1ccc(C(C)C)cc1 (stereo not given),-17.6,–,"20.6 µM [falling, partial curve, poor fit]"
CCc1cccc(C)c1NC(=O)CCOc1ccccc1,15.4,–,"4.11 µM [rising, partial curve]"
O=C(COC(=O)Cn1[nH]c(=O)c2ccccc2c1=O)Nc1c(Cl)cccc1C(F)(F)F,-3.74,–,"3.66 µM [rising, full curve, poor fit]"
Cc1cc(C)c(C)c(S(=O)(=O)N2CCN(C(=O)CCc3nc4ccccc4c(=O)[nH]3)CC2)c1C,-20.3,–,"9.2 µM [falling, partial curve, poor fit]"
C/C(=N\NC(=O)c1cc(-c2cccc([N+](=O)[O-])c2)n[nH]1)c1ccccc1O,6.57,–,"8.2 µM [rising, partial curve]"
Cc1cccc(Nc2nnc(SCC(=O)NC3CCCc4ccccc43)s2)c1C (stereo not given),-9.61,–,"1.46 µM [falling, full curve, poor fit]"
O=C(Cn1ccc([N+](=O)[O-])n1)NCC1CCCO1 (stereo not given),-3.76,–,"0.92 µM [falling, partial curve, poor fit]"
Cc1ccc([N+](=O)[O-])c(OCCN2CCC(Cc3ccccc3)CC2)c1,8.31,"0.0058 µM [falling, full curve, poor fit]","0.00517 µM [falling, full curve, poor fit]"
CCCOc1cccc(C2C(C(=O)c3ccc(C)o3)=C(O)C(=O)N2CCN2CCOCC2)c1 (stereo not given),12.2,–,"20.6 µM [rising, single point]"
O=C(CSc1ncnc2c1sc1ccccc12)Nc1ccc(Br)cc1,2.94,–,"0.82 µM [rising, single point]"
COC1c2ccccc2C(=O)N1Cc1ccc(F)cc1 (stereo not given),-7.08,–,"0.231 µM [rising, full curve, poor fit]"
Cc1ccc(C(=O)OC(C)C(=O)NCc2ccc3c(c2)OCO3)cc1S(=O)(=O)N1CCOCC1 (stereo not given),-16.1,–,–
CCC(c1nnc(SCC(=O)Nc2cc(C)on2)o1)N(C)C (stereo not given),-30.2,"14.6 µM [falling, single point]","0.731 µM [rising, single point]"
COC(=O)c1cc(=O)n(-c2ccccc2)c(=Nc2ccccc2)s1,-33.1,"29.1 µM [falling, single point]","16.4 µM [falling, partial curve]"
CC1(C)CC(NC(=O)c2ccccn2)CC(C)(C)N1O,-28.6,–,"1.16 µM [rising, single point]"
Cc1cnn(-c2cc(N/N=C/c3ccccc3)ncn2)c1,-9.73,–,–
CC(C)Cn1c(-c2ccccc2)nc(=S)c2c1CCCC2,36.6,"29.1 µM [rising, single point]","3.26 µM [falling, single point]"
O=C(CNc1cccc(S(=O)(=O)N2CCOCC2)c1)Nc1ccc(C(F)(F)F)cc1,–,–,"0.103 µM [rising, full curve, poor fit]"
O=C(c1ccccc1)N(CCN1CCOCC1)C1(C(=O)Nc2ccccc2)CCCCC1,-13,–,"0.82 µM [falling, full curve, poor fit]"
CCNC(=O)CCc1nc(-c2ccc(C(C)(C)C)cc2)no1,-38.3,"29.1 µM [falling, single point]","13 µM [falling, partial curve]"

# Shown as tab-separated lines: entries from further up
SMILES	cell number change [%]	AC50 [1]	AC50 [2]
COC(=O)c1cc(=O)n(-c2ccccc2)c(=Nc2ccccc2)s1	-33.1	29.1 µM [falling, single point]	16.4 µM [falling, partial curve]
CC1(C)CC(NC(=O)c2ccccn2)CC(C)(C)N1O	-28.6	–	1.16 µM [rising, single point]

# Continued.

SMILES,cell number change [%],AC50 [1],AC50 [2]
CCOC(=O)c1cnc(SCc2ccc(C(C)(C)C)cc2)nc1N,-2.81,–,"6.51 µM [rising, single point]"
CN(c1ccccc1)S(=O)(=O)c1cccc(NC(=O)C2CC(=O)N(Cc3ccccc3)C2)c1 (stereo not given),-2.94,–,"29.1 µM [falling, single point]"
O=C1NC2(CCCCC2)NN1c1ccccc1,-0.975,"6.51 µM [rising, partial curve, poor fit]","6.51 µM [rising, partial curve, poor fit]"
Cc1ccccc1N/C(SCc1cccc(Br)c1)=C(/C#N)C(N)=O,-34.6,"29.1 µM [falling, single point]","3.66 µM [falling, full curve, poor fit]"
COc1ccc(S(=O)(=O)Nc2cccnc2)c(C)c1C,15.1,–,"29.1 µM [falling, single point]"
CCOC(=O)CNC(=O)N1CCC(CCC(=O)N(C)Cc2ccccc2)CC1,3.41,–,"29.1 µM [rising, single point]"
NS(=O)(=O)c1ccc(CCNC(=O)CCCC2=NS(=O)(=O)c3ccccc3N2)cc1,–,–,"0.00461 µM [rising, full curve, poor fit]"
CCC(C)NC(=O)c1ccc(CSCc2cccc(F)c2)o1 (stereo not given),61.5,"29.1 µM [rising, single point]","29.1 µM [rising, single point]"
Cc1cc(C(C)(C)C)cc(S(=O)(=O)NCCO)c1C,-40.3,–,"3.26 µM [falling, partial curve]"
CCOC(=O)c1ccccc1-n1nnnc1C,-34.7,"0.116 µM [falling, full curve]",–
CCCOc1cc(C)c(S(=O)(=O)N2CCN(C)CC2)cc1C,–,–,"1.84 µM [rising, partial curve]"
Cc1nc2cc(NC(=O)NCc3ccccc3)ccc2o1,-21.5,–,–
CCN(CC)CCNC(=O)Cc1c(C(=O)O)n(CC)c2ccccc12,–,–,"20.6 µM [falling, partial curve]"
COc1ccc(N2C(=O)CC(Sc3nc4ccccc4s3)C2=O)cc1 (stereo not given),13.1,"0.164 µM [rising, full curve, poor fit]",–
Cc1nc(-c2ccc(Cl)cc2)sc1C(=O)NNC(=O)C(C)C,47.3,"16.4 µM [rising, single point]","16.4 µM [rising, partial curve]"
Cc1cccc(NC(=S)NCc2ccc3c(c2)OCO3)c1,16,–,"16.4 µM [rising, partial curve]"
COc1ccccc1NC(=O)CCC(=O)Nc1cc(OC)c(NC(=O)c2cccs2)cc1OC,0.417,–,"0.82 µM [rising, single point]"
Fc1ccccc1/C=N/n1c(COc2ccccc2)n[nH]c1=S,-33.9,"29.1 µM [falling, single point]","29.1 µM [falling, single point]"
COc1ccccc1NC(=O)CN(C)S(=O)(=O)c1ccc2c(c1)CCC(=O)N2,55.3,"9.2 µM [rising, partial curve, poor fit]","20.6 µM [rising, partial curve]"
CCN1CCN(CCNC(=O)c2ccc3nc(-c4cccc(C)c4)c(-c4cccc(C)c4)nc3c2)CC1,10.6,–,"6.51 µM [rising, single point]"
COc1ccc2oc(=O)c(C(=O)Nc3ccccc3O)cc2c1,3.26,–,"0.731 µM [falling, single point]"
COc1ccc(C2C(C#N)=C(SC)NC3=C2C(=O)CC(C)(C)C3)cc1 (stereo not given),-12.7,–,–
Cc1nc2ccccc2c2c1C(=O)N(C1CCCCCCC1)C2=O,-1.61,–,"1.84 µM [rising, full curve, poor fit]"
O=C(COC(=O)/C=C/c1ccc(Cl)c(Cl)c1)NC1CCCC1,33.1,"20.6 µM [rising, single point]","13 µM [rising, partial curve, poor fit]"
COc1ccc(N2CCN(CCCNC(=O)c3ccc(CS(=O)(=O)c4ccc(OC)cc4)o3)CC2)cc1,7.31,–,"29.1 µM [rising, single point]"
Cc1ccc(-c2nn(-c3ccccc3)cc2/C=C2\SC(=S)N(CCCCCC(=O)O)C2=O)o1,65.1,"25.9 µM [rising, single point]","29.1 µM [falling, single point]"
Cc1ccc(S(=O)(=O)Nn2c(C)ccc2C)cc1,13.5,–,"0.184 µM [falling, full curve, poor fit]"

# Structures above containing two or more sulfur atoms:
SMILES,cell number change [%],AC50 [1],AC50 [2]
CC(C)CN(C1CCS(=O)(=O)C1)S(=O)(=O)c1ccc(C(C)C)cc1 (stereo not given),-17.6,–,"20.6 µM [falling, partial curve, poor fit]"
Cc1cccc(Nc2nnc(SCC(=O)NC3CCCc4ccccc43)s2)c1C (stereo not given),-9.61,–,"1.46 µM [falling, full curve, poor fit]"
O=C(CSc1ncnc2c1sc1ccccc12)Nc1ccc(Br)cc1,2.94,–,"0.82 µM [rising, single point]"
NS(=O)(=O)c1ccc(CCNC(=O)CCCC2=NS(=O)(=O)c3ccccc3N2)cc1,–,–,"0.00461 µM [rising, full curve, poor fit]"
COc1ccc(N2C(=O)CC(Sc3nc4ccccc4s3)C2=O)cc1 (stereo not given),13.1,"0.164 µM [rising, full curve, poor fit]",–
Cc1ccc(-c2nn(-c3ccccc3)cc2/C=C2\SC(=S)N(CCCCCC(=O)O)C2=O)o1,65.1,"25.9 µM [rising, single point]","29.1 µM [falling, single point]"
